Experimental data taken from the supplement of paper PMC10849652.
This is one part of the list.

Sequences of proteins named here, by UniProt entry; tags and fusion partners are left off. A change or cut given only in a name is not applied to a line headed by its entry.
UniProt Q96AD5: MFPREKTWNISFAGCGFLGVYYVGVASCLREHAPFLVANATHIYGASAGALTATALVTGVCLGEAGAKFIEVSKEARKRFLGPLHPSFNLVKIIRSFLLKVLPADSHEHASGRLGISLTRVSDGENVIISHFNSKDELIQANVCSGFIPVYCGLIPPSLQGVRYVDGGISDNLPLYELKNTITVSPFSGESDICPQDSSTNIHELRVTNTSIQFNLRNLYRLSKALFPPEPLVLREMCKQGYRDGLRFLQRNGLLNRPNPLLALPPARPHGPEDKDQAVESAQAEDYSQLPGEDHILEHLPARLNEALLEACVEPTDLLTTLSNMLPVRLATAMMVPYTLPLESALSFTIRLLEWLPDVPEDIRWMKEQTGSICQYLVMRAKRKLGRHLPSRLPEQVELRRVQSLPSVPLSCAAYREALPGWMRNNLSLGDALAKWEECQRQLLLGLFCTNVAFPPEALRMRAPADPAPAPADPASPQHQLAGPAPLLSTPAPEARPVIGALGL
UniProt P62937, whole entry, looked up: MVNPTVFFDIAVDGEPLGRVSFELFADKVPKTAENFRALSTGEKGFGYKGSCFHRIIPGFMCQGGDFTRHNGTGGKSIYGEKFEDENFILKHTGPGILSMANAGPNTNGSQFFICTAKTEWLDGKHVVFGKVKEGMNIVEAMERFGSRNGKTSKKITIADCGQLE
UniProt Q8TD55: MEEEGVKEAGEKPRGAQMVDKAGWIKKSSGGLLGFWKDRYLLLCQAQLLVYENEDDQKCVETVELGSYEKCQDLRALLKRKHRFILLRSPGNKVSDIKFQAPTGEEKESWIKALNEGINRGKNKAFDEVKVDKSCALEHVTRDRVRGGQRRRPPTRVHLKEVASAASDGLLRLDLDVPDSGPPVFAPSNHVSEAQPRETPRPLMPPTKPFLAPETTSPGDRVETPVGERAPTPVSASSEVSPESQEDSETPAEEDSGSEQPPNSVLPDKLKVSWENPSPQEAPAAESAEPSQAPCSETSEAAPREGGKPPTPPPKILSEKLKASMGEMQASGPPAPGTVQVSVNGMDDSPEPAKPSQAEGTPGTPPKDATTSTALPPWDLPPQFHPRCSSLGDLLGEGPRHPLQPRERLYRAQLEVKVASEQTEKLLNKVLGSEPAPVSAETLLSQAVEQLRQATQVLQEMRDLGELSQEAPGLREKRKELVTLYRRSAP
UniProt Q969H6: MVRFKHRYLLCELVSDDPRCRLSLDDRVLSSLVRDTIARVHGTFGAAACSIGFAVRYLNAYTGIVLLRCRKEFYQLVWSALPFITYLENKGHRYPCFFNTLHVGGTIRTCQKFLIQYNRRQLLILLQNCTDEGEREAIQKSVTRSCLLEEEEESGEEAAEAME
UniProt Q9Y2G5: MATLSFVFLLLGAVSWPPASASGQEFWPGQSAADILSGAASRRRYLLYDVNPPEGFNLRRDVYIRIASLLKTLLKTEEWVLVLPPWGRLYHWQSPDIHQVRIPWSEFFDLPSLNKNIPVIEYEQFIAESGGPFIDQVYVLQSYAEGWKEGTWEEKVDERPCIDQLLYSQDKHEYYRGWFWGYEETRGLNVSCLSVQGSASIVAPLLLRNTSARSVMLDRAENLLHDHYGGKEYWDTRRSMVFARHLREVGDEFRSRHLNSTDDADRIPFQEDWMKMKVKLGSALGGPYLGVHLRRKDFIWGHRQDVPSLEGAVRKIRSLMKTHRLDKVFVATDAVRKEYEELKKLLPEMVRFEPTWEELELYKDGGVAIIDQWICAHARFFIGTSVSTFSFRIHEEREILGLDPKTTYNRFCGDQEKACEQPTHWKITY
UniProt Q9BUI4: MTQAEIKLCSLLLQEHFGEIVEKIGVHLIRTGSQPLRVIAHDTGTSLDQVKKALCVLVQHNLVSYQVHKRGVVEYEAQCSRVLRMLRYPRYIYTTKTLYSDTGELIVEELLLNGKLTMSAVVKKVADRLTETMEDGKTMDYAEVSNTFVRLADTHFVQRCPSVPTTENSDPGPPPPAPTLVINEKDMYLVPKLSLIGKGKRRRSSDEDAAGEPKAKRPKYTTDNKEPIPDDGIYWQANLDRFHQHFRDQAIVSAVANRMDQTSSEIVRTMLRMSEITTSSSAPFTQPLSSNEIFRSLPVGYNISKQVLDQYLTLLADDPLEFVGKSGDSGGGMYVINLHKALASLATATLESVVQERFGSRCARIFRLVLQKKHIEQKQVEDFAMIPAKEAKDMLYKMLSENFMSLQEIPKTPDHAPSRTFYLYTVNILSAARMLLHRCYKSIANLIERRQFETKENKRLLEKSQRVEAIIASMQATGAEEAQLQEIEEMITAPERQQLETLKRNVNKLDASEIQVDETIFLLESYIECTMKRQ
UniProt Q9BY77: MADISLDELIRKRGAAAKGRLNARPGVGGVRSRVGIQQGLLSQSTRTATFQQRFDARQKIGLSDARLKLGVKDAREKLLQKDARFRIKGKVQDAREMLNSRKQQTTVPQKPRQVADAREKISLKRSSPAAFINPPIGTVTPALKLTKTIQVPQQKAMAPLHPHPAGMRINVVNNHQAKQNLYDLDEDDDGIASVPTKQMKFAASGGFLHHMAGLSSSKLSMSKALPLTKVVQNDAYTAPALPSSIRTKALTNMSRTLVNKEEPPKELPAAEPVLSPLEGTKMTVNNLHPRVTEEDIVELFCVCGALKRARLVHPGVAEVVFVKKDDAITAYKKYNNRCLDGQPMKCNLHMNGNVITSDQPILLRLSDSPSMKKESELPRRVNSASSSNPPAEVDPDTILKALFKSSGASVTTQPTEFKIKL
UniProt P14859: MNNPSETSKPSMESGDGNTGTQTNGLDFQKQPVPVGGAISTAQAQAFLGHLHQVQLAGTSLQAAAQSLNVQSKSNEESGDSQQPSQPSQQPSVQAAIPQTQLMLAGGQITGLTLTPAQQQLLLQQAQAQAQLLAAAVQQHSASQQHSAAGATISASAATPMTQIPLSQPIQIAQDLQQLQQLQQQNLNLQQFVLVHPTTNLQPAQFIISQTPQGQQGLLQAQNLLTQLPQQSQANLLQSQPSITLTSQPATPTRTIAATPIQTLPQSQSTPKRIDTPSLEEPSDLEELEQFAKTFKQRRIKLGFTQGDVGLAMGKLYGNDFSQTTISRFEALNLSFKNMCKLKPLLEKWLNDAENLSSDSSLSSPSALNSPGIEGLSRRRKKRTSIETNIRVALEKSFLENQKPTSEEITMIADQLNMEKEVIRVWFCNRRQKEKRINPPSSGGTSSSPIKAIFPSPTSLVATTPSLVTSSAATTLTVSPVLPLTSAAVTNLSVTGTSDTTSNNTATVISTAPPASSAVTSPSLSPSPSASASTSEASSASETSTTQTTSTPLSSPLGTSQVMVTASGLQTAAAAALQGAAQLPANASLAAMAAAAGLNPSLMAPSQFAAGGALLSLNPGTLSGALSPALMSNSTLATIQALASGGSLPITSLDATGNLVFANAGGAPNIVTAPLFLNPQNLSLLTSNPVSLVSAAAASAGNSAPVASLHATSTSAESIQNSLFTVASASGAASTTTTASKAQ
UniProt Q9NR33: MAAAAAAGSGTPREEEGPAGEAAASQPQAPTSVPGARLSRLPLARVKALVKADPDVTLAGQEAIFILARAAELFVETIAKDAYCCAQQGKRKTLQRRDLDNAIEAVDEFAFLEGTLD
UniProt P00491: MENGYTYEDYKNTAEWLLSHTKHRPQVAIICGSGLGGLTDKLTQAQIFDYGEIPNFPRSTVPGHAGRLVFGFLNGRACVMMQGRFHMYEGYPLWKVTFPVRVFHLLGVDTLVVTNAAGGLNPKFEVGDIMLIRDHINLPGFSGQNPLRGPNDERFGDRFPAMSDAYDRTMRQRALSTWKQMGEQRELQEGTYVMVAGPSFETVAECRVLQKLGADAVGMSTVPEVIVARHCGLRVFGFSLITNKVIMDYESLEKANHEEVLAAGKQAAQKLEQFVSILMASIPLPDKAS
UniProt Q07864, whole entry, looked up: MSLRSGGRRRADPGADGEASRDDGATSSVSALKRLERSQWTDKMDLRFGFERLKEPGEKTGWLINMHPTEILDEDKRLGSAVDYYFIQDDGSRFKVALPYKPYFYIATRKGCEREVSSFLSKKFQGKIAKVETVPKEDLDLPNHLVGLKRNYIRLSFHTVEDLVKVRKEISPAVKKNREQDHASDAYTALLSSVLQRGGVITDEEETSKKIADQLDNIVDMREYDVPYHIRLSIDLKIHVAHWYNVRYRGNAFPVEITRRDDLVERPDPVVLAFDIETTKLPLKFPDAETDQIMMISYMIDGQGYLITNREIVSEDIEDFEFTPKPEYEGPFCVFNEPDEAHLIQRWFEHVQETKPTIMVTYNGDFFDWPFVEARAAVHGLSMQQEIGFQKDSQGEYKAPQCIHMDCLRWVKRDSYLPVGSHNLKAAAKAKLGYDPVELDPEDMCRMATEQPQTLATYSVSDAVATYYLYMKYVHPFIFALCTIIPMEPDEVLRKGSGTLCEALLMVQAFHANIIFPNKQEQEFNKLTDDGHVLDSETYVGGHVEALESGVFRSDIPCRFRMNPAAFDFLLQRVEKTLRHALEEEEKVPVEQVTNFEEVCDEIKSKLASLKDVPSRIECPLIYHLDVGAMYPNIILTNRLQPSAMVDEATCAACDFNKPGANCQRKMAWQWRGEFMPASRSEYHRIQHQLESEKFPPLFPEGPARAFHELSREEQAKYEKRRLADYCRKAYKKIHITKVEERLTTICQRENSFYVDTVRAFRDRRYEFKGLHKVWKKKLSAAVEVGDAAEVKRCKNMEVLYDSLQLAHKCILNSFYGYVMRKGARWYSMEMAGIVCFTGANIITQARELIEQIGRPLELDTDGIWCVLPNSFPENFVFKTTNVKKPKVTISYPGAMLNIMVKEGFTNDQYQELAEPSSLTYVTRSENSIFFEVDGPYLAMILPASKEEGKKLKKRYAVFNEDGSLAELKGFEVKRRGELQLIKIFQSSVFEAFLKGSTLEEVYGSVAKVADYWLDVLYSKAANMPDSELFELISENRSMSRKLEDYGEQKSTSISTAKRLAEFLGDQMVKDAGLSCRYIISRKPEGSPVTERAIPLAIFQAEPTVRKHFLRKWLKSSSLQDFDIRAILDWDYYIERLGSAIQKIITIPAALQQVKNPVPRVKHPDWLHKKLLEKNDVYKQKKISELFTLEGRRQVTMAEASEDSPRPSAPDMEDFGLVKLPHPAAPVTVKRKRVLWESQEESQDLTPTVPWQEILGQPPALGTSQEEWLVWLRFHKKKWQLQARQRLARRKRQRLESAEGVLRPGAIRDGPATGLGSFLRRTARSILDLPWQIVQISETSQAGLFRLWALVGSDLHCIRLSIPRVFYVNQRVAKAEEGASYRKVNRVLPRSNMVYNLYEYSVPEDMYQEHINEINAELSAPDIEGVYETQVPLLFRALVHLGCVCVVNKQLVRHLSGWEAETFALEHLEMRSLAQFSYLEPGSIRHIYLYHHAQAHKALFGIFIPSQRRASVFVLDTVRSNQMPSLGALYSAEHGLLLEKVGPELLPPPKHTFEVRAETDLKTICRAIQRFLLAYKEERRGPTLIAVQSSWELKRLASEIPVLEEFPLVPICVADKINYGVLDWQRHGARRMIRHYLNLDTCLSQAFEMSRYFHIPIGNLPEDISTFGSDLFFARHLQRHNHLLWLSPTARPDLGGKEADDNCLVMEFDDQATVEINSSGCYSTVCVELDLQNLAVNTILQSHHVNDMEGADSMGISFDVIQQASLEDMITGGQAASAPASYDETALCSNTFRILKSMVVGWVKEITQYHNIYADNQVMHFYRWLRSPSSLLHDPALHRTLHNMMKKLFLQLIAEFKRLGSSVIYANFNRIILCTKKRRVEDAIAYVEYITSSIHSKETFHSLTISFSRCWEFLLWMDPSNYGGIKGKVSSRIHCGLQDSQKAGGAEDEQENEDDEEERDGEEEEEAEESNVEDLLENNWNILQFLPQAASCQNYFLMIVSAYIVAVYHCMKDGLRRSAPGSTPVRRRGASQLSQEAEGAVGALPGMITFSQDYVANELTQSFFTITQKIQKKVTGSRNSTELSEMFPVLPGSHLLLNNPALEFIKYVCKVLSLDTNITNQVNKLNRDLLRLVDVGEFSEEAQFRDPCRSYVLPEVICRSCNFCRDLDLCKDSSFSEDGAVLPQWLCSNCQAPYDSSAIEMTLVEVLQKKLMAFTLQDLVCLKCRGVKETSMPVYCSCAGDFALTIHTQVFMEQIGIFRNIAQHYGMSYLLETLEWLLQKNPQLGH
UniProt Q8IYS1: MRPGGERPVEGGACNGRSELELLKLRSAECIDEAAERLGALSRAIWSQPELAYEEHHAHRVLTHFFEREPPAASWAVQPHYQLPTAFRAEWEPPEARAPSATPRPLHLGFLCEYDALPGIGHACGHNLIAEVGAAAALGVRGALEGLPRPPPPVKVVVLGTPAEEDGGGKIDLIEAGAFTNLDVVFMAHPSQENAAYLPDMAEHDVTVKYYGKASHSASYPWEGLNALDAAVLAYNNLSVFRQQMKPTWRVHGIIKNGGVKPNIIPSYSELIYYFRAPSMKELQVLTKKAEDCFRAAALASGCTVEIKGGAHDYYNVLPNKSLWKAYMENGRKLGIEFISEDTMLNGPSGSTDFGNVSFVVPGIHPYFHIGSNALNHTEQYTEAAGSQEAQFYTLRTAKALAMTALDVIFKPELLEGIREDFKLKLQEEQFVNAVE

Experiments:
Assay in all cases: log2 fold change, soluble protein after heating vs DMSO (PISA); higher = thermal stabilisation; K562 cells, 10 uM, 30 min; active = over 0.2 and 3.5 SD of the protein, either way, in both replicates (recomputed)
[1] = compound: C1=CC=C(C=C1)[C@H](COC2=CC3=C(C=C2)NC(=O)N3)NC(=O)C4=CC=CN(C4=O)CC5=CC(=C(C=C5)F)F
Outline: (§1)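 Thermal stability values are relative to control samples and come from duplicates. They are expressed as log2 fold changes. For measurement, K562 cells (2×10^6 cells/mL) received 10 μM compound for 30 min, and aliquots were heated for 3 min over 48°C-58°C, pooled, and extracted at 4°C in PBS with 0.5% NP-40. Soluble protein, the supernatant after 21,000xg for 90 min, was quantified by TMTpro 16plex LC-MS/MS with equalised channel sums.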

[2] = compound: CC1=C(SC2=C1C(=N[C@H](C3=NN=C(N32)C)CC(=O)N)C4=CC=C(C=C4)Cl)C
Outline: as §1

[3] = compound: CC1=C2C(=CC=C1)N=C(N(C2=O)C3=CC=CC=C3C)CN4C=NC5=C(N=CN=C54)N
Outline: as §1

[4] = compound: Cc1sc2c(c1C)C(c1ccc(Cl)cc1)=N[C@@H](CC(=O)OC(C)(C)C)c1nnc(C)n1-2
Outline: as §1

[5] = compound: c1ccc([C@@H]2C[C@H]2NC2CCNCC2)cc1
Outline: as §1

Measured: log2 fold change

PNPLA2 (UniProt Q96AD5)
inactive: [1] 0.06 | [2] 0.014 | [3] 0.037 | [4] 0.068 | [5] -0.046

PPIA isoform 2 (UniProt P62937)
inactive: [1] -0.248 | [2] 0.061 | [3] 0.2 | [4] -0.026 | [5] 0.075

POGLUT1 (UniProt Q8NBL1)
inactive: [1] 0.039 | [2] -0.041 | [3] 0.082 | [4] 0.07 | [5] 0.015

POSTN (UniProt Q15063)
inactive: [1] -0.103 | [2] -0.057 | [3] 0.082 | [4] -0.102 | [5] -0.022

Retrieved one by one from the list above (two):
PPIA isoform 2 (UniProt P62937)
inactive: [1] -0.248 | [2] 0.061 | [3] 0.2 | [4] -0.026 | [5] 0.075

PNPLA2 (UniProt Q96AD5)
inactive: [1] 0.06 | [2] 0.014 | [3] 0.037 | [4] 0.068 | [5] -0.046

Taken from the results shown (two entries):
PNPLA2 (UniProt Q96AD5)
inactive: [1] 0.06 | [2] 0.014 | [3] 0.037 | [4] 0.068 | [5] -0.046

PPIA isoform 2 (UniProt P62937)
inactive: [1] -0.248 | [2] 0.061 | [3] 0.2 | [4] -0.026 | [5] 0.075

(list continues)

POTEI (UniProt P0CG38)
inactive: [1] 0.025 | [2] 0.012 | [3] -0.059 | [4] -0.03 | [5] -0.002

PNISR (UniProt Q8TF01)
inactive: [1] 0.055 | [2] -0.024 | [3] 0.008 | [4] -0.022 | [5] 0.04

POLR2G (UniProt P62487)
inactive: [1] 0.082 | [2] 0.176 | [3] 0.001 | [4] 0.167 | [5] -0.016

PNO1 (UniProt Q9NRX1)
inactive: [1] -0.098 | [2] -0.007 | [3] -0.05 | [4] 0.203 | [5] -0.037

PPAT (UniProt Q06203)
inactive: [1] 0.014 | [2] 0.078 | [3] 0.003 | [4] -0.005 | [5] -0.011

POLE3 (UniProt Q9NRF9)
inactive: [1] -0.058 | [2] 0.052 | [3] 0.064 | [4] -0.002 | [5] 0.024

PPIE (UniProt Q9UNP9)
inactive: [1] -0.027 | [2] -0.022 | [3] -0.073 | [4] 0.034 | [5] 0.041

POLR2M (UniProt P0CAP2)
inactive: [1] -0.021 | [2] 0.096 | [3] 0.045 | [4] 0.004 | [5] -0.062

PLEKHO2 (UniProt Q8TD55)
inactive: [1] -0.067 | [2] 0.197 | [3] 0.023 | [4] -0.081 | [5] 0.145

PPA1 (UniProt Q15181)
inactive: [1] -0.067 | [2] 0.038 | [3] 0.057 | [4] -0.019 | [5] -0.062

PPA2 (UniProt Q9H2U2)
inactive: [1] -0.009 | [2] 0.022 | [3] 0.063 | [4] -0.042 | [5] -0.044

PPIL4 (UniProt Q8WUA2)
inactive: [1] 0.012 | [2] -0.022 | [3] 0.036 | [4] 0.039 | [5] 0.016

POP5 (UniProt Q969H6)
inactive: [1] 0.118 | [2] -0.021 | [3] -0.066 | [4] 0.044 | [5] -0.034

PPIF (UniProt P30405)
inactive: [1] 0.038 | [2] 0.063 | [3] 0.075 | [4] 0.006 | [5] -0.02

PLPP6 (UniProt Q8IY26)
inactive: [1] 0.018 | [2] -0.016 | [3] -0.182 | [4] -0.16 | [5] 0.151

PPCS (UniProt Q9HAB8)
inactive: [1] -0.018 | [2] 0.043 | [3] 0.062 | [4] -0.008 | [5] 0.047

PPIL1 (UniProt Q9Y3C6)
inactive: [1] -0.046 | [2] 0.012 | [3] 0.021 | [4] 0.032 | [5] -0.052

PLSCR1 (UniProt O15162)
inactive: [1] 0.017 | [2] 0.036 | [3] -0.016 | [4] -0.051 | [5] 0.055

POFUT2 (UniProt Q9Y2G5)
inactive: [1] 0.026 | [2] -0.055 | [3] 0.035 | [4] 0.007 | [5] -0.011

PPFIA2 (UniProt O75334)
inactive: [1] -0.011 | [2] 0.161 | [3] -0.012 | [4] 0.06 | [5] -0.191

POMT2 (UniProt Q9UKY4)
inactive: [1] -0.185 | [2] -0.05 | [3] -0.068 | [4] -0.006 | [5] 0.027

PMPCA (UniProt Q10713)
inactive: [1] -0.015 | [2] 0.121 | [3] 0.06 | [4] 0.018 | [5] -0.047

POMK (UniProt Q9H5K3)
inactive: [1] 0.04 | [2] 0.027 | [3] -0.041 | [4] -0.067 | [5] -0.022

PPIP5K2 (UniProt O43314)
inactive: [1] 0.015 | [2] 0.043 | [3] 0.076 | [4] -0.022 | [5] 0

POLR3G (UniProt O15318)
inactive: [1] -0.006 | [2] -0.012 | [3] 0.053 | [4] 0.024 | [5] 0.047

POLR2B (UniProt P30876)
inactive: [1] -0.028 | [2] 0.105 | [3] 0.047 | [4] 0.159 | [5] -0.053

POLR3C (UniProt Q9BUI4)
inactive: [1] -0.008 | [2] 0.021 | [3] 0 | [4] -0.028 | [5] -0.009

POLR3B (UniProt Q9NW08)
inactive: [1] -0.035 | [2] -0.02 | [3] 0.078 | [4] 0.04 | [5] -0.046

POLDIP3 (UniProt Q9BY77)
inactive: [1] -0.01 | [2] -0.092 | [3] -0.075 | [4] 0.108 | [5] -0.011

POTEF (UniProt A5A3E0)
inactive: [1] 0.027 | [2] 0.028 | [3] 0.04 | [4] 0.006 | [5] 0.007

POLR2F (UniProt P61218)
inactive: [1] 0.017 | [2] 0.011 | [3] 0.095 | [4] -0.024 | [5] -0.131

POLA2 (UniProt Q14181)
inactive: [1] -0.023 | [2] 0.048 | [3] 0.114 | [4] -0.006 | [5] 0.034

PPCDC (UniProt Q96CD2)
inactive: [1] -0.039 | [2] 0.126 | [3] 0.083 | [4] -0.047 | [5] -0.045

PPFIA1 (UniProt Q13136)
inactive: [1] -0.053 | [2] -0.058 | [3] 0.063 | [4] 0.032 | [5] -0.021

POLR2D (UniProt O15514)
inactive: [1] 0.003 | [2] 0.134 | [3] -0.006 | [4] 0.17 | [5] 0.045

POLR2C (UniProt P19387)
inactive: [1] -0.091 | [2] 0.125 | [3] -0.023 | [4] 0.155 | [5] -0.092

POFUT1 (UniProt Q9H488)
inactive: [1] 0.046 | [2] -0.025 | [3] -0.055 | [4] 0.002 | [5] -0.046

POLD3 (UniProt Q15054)
inactive: [1] -0.027 | [2] 0.14 | [3] 0.104 | [4] -0.037 | [5] -0.009

POLR3A (UniProt O14802)
inactive: [1] -0.027 | [2] -0.033 | [3] -0.014 | [4] 0.032 | [5] 0.023

PMPCB (UniProt O75439)
inactive: [1] 0.005 | [2] 0.111 | [3] 0.01 | [4] 0.012 | [5] -0.053

PPID (UniProt Q08752)
inactive: [1] -0.079 | [2] 0.031 | [3] 0.036 | [4] -0.035 | [5] -0.031

PODXL2 (UniProt Q9NZ53)
inactive: [1] 0.028 | [2] 0.102 | [3] 0.065 | [4] 0.024 | [5] -0.014

PNPLA4 (UniProt P41247)
inactive: [1] 0.068 | [2] 0.158 | [3] 0.042 | [4] 0.099 | [5] 0.178

POU2F1 isoform 6 (UniProt P14859)
inactive: [1] -0.081 | [2] 0.103 | [3] 0.086 | [4] -0.049 | [5] 0.085

POLE4 (UniProt Q9NR33)
inactive: [1] 0.008 | [2] 0.189 | [3] 0.051 | [4] -0.089 | [5] 0.077

POR (UniProt P16435)
inactive: [1] 0.007 | [2] 0.064 | [3] 0.017 | [4] -0.002 | [5] -0.06

PNP (UniProt P00491)
inactive: [1] 0.025 | [2] 0.02 | [3] -0.001 | [4] 0.01 | [5] 0.016

POLR1E isoform 1 (UniProt Q9GZS1)
inactive: [3] -0.479

POLE (UniProt Q07864)
inactive: [1] 0.015 | [2] 0.118 | [5] -0.122

PM20D2 (UniProt Q8IYS1)
inactive: [4] 0.032

PPIL3 isoform 2 (UniProt Q9H2H8)
inactive: [1] 0.078 | [3] -0.074 | [4] -0.002
